The source of these data is publication PMC12510807.

Results are given in words; binding and its absence hold for the method and conditions named. Binding seen in cells or lysates may run through a third protein. Some results given as binding are weak or reduced against the parent protein; the word gives no strength.

This test deals with T1, ferroptosis suppressor protein 1 (FSP1) (UniProt Q9BRQ8).
T1 sequence: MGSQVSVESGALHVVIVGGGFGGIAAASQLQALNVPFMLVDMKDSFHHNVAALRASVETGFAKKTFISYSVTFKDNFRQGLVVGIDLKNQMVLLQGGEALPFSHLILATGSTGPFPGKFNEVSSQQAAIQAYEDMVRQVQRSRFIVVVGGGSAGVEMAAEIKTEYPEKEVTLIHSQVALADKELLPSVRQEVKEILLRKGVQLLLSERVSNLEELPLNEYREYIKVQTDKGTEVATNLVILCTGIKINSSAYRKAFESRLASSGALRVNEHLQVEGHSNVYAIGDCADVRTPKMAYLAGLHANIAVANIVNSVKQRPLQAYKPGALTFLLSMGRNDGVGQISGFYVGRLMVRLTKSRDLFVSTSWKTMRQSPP
Nature of the test: co-IP; FSP1 with wild-type or Y41A mutant NMT1; cells not given.

B1: wild-type NMT1 (enzyme, UniProt P30419 1-496)
chain: MADESETAVKPPAPPLPQMMEGNGNGHEHCSDCENEEDNSYNRGGLSPANDTGAKKKKKKQKKKKEKGSETDSAQDQPVKMNSLPAERIQEIQKAIELFSVGQGPAKTMEEASKRSYQFWDTQPVPKLGEVVNTHGPVEPDKDNIRQEPYTLPQGFTWDALDLGDRGVLKELYTLLNENYVEDDDNMFRFDYSPEFLLWALRPPGWLPQWHCGVRVVSSRKLVGFISAIPANIHIYDTEKKMVEINFLCVHKKLRSKRVAPVLIREITRRVHLEGIFQAVYTAGVVLPKPVGTCRYWHRSLNPRKLIEVKFSHLSRNMTMQRTMKLYRLPETPKTAGLRPMETKDIPVVHQLLTRYLKQFHLTPVMSQEEVEHWFYPQENIIDTFVVENANGEVTDFLSFYTLPSTIMNHPTHKSLKAAYSFYNVHTQTPLLDLMSDALVLAKMKGFDVFNALDLMENKTFLEKLKFGIGDGNLQYYLYNWKCPSMGAEKVGLVLQ
B1: the binding entry is on record as “binds”.

B2: Y41A mutant NMT1 (enzyme, UniProt P30419 1-496)
chain: MADESETAVKPPAPPLPQMMEGNGNGHEHCSDCENEEDNSANRGGLSPANDTGAKKKKKKQKKKKEKGSETDSAQDQPVKMNSLPAERIQEIQKAIELFSVGQGPAKTMEEASKRSYQFWDTQPVPKLGEVVNTHGPVEPDKDNIRQEPYTLPQGFTWDALDLGDRGVLKELYTLLNENYVEDDDNMFRFDYSPEFLLWALRPPGWLPQWHCGVRVVSSRKLVGFISAIPANIHIYDTEKKMVEINFLCVHKKLRSKRVAPVLIREITRRVHLEGIFQAVYTAGVVLPKPVGTCRYWHRSLNPRKLIEVKFSHLSRNMTMQRTMKLYRLPETPKTAGLRPMETKDIPVVHQLLTRYLKQFHLTPVMSQEEVEHWFYPQENIIDTFVVENANGEVTDFLSFYTLPSTIMNHPTHKSLKAAYSFYNVHTQTPLLDLMSDALVLAKMKGFDVFNALDLMENKTFLEKLKFGIGDGNLQYYLYNWKCPSMGAEKVGLVLQ
Regarding B2, the binding result is listed as “binds”.
